Measured values from EP4415826B1, “SYNTHESIS AND IN VITRO ANTITUMOR ACTIVITIES OF NOVEL THIOAMIDE SUBSTITUTED PIPERAZINYL-1,2,4-TRIAZINES” (Istanbul Medipol Universitesi, priority 2021, dated 2023).

Columns and labels:
U87MG glioblastoma = experiment: MTT cell viability assay, U87MG; assay type: cell-based; conditions: ratio of IC50 U87MG to IC50 NIH3T3; first value of the cell
Procedure: (§1) In order to assess the viability of the cells MTT […] assay was applied. Initially cells were seeded in the 96-well plates (VWR- 10062900) at a density of 10,000 cells/well and incubated in a cell culture incubator at 37 °C with 5% CO2 for 24 hours. Then, the cells were incubated with the tested compounds at the concentration of 100µM, 50µM, 25µM and 12.5µM for 24 hours. After completion of incubation in molecules, all media were removed and 50 µl MTT (Gold Biotechnology T-030) solution was added to each well and the plates were incubated for an additional 3 hours, followed by addition of 150 µl of MTT solubilization mixture containing 0.1% Triton X-100 (Cat. No:A4025, Biomatik, USA ) and 4mM HCI (Cat. No:07102, Sigma-Aldrich, Germany) in isopropanol(Cat. No:278475, Sigma-Aldrich, Germany). The solution was slowly mixed for 15 minutes to dissolve the MTT formazan crystals and the absorbance of each well was measured with HIDEX Sense Microplate Reader(Cat. No:425-301, HIDEX, Finland) at the wavelength of 570 nm.

MCF7 breast tumor = experiment: MTT cell viability assay, MCF7; assay type: cell-based; conditions: ratio of IC50 MCF7 to IC50 NIH3T3; second value of the cell
Procedure: as §1

Row | Structure (SMILES) | SI U87MG/NIH3T3 (U87MG glioblastoma) | SI MCF7/NIH3T3 (MCF7 breast tumor)
1 | S=C(Nc1ccccc1)N1CCN(c2nnc(-c3ccccc3)c(-c3ccccc3)n2)CC1 [Compound 1b, 4-(5,6-diphenyl-1,2,4-triazin-3-yl)-N-phenylpiperazine-1-carbothioamide] | 1.08, ND | 
2 | CCNC(=S)N1CCN(c2nnc(-c3ccccc3)c(-c3ccccc3)n2)CC1 [Compound 1a, 4-(5,6-diphenyl-1,2,4-triazin-3-yl)-N-ethylpiperazine-1-carbothioamide] | 0.89 | 1.89
3 | S=C(Nc1ccc(Cl)cc1)N1CCN(c2nnc(-c3ccccc3)c(-c3ccccc3)n2)CC1 [Compound 1f, N-(4-chlorophenyl)-4-(5,6-diphenyl-1,2,4-triazin-3-yl)piperazine-1-carbothioamide] | 0.90, ND | 
4 | S=C(Nc1ccc(Cl)cc1)N1CCN(c2nnc(-c3ccc(Cl)cc3)c(-c3ccc(Cl)cc3)n2)CC1 [Compound 1i, 4-(5,6-bis(4-chlorophenyl)-1,2,4-triazin-3-yl)-N-(4-chlorophenyl)piperazine-1-carbothioamide] | 1,21, ND | 
5 | S=C(Nc1ccccc1)N1CCN(c2nnc(-c3ccc(Cl)cc3)c(-c3ccc(Cl)cc3)n2)CC1 [Compound 1h, 4-(5,6-bis(4-chlorophenyl)-1,2,4-triazin-3-yl)-N-phenylpiperazine-1-carbothioamide] |  | ND, 1.92
6 | N.N.[Cl][Pt][Cl] [Cisplatin, reference compound] | 4.88 | 1.73
7 | COc1ccc(-c2nnc(N3CCN(C(=S)Nc4ccccc4)CC3)nc2-c2ccc(OC)cc2)cc1 [Compound 1g, 4-(5,6-bis(4-methoxyphenyl)-1,2,4-triazin-3-yl)-N-phenylpiperazine-1-carbothioamide] | 0.89 | 1.19
